Source: PubChem BioAssay AID292 (DTP/NCI, 2004)
The list does not hold the whole screen: it gathers tests that were run many times, whatever their T/C, doses with no T/C, and many T/C values between a quarter and a half above the control. Other doses and runs of a compound stand elsewhere. T/C is the treated group as % of the vehicle group. Some doses have a count of surviving animals in place of a T/C: the source holds a T/C of zero for them, seemingly a mark for toxic or unscored doses. Some survivor counts are full or nearly so, which does not show that the dose was tolerated: survival well below the control is almost never listed, so the zero probably covers shortened survival too. Survivors were counted at the toxicity check, usually on the fifth day, unless a day is given; later deaths do not show. Schedules are NCI's codes, read here as Q, the interval in days (D) or hours (H), X, the number of doses. Marks such as (2×) give the number of equal values in this list. Some entries hold several experiments; the values are given in rising order. Where survival is the endpoint, the PubChem record calls one and a half times the control and up active, and a quarter to a half above the control has no call in these data; cut-offs in other NCI protocols can differ. Some T/C values carry the count of animals alive at the toxicity check (mostly the fifth day); where none is given, no animal had died by that day.

System: B6C3F1 mice, ip Sarcoma M5076, median survival T/C
Test: NCI In Vivo Anticancer Drug Screen. Data for tumor model Sarcoma M5076 (intraperitoneal) in B6C3F1 mice
Settings: T/C endpoint: median survival time, higher T/C = longer survival
Experimental: The antitumor activity of compounds was measured in mice bearing transplantable tumors. Survival or tumor size were measured and the results are expressed as the measurement made in the treated group (T) divided by the measurement made in the vehicle treated control group (C). The tumor model used in this assay is Sarcoma M5076 (intraperitoneal) in B6C3F1 mice

[1] = dose: 300.0 micrograms/kg/injection, schedule: Q04DX005 (ip), vehicle: saline
[2] = dose: 50.0 mg/kg/injection, schedule: Q04DX004 (ip), vehicle: Klucel (hydroxypropylcellulose) (HPC)
[3] = dose: 200.0 mg/kg/injection, schedule: Q04DX004 (ip), vehicle: Klucel (hydroxypropylcellulose) (HPC)
[4] = dose: 400.0 mg/kg/injection, schedule: Q04DX004 (ip), vehicle: Klucel (hydroxypropylcellulose) (HPC)
[5] = dose: 100.0 mg/kg/injection, schedule: Q04DX004 (ip), vehicle: suspension in saline
[6] = dose: 400.0 mg/kg/injection, schedule: Q04DX004 (ip), vehicle: saline with Tween-80
[7] = dose: 800.0 mg/kg/injection, schedule: Q04DX004 (ip), vehicle: saline with Tween-80
[8] = dose: 200.0 mg/kg/injection, schedule: Q04DX004 (ip), vehicle: saline with Tween-80
[9] = dose: 800.0 mg/kg/injection, schedule: Q04DX004 (ip), vehicle: Klucel (hydroxypropylcellulose) (HPC)
[10] = dose: 300.0 mg/kg/injection, schedule: Q04DX004 (ip), vehicle: saline with Tween-80

COc1cc2cc(c1Cl)N(C)C(=O)C[C@H](OC(=O)[C@H](C)N(C)C(C)=O)[C@]1(C)O[C@H]1[C@H](C)[C@@H]1C[C@@](O)(NC(=O)O1)[C@H](OC)C=C/C=C(\C)C2
T/C (dose: 75.0 micrograms/kg/injection, schedule: Q04DX004 (ip), vehicle: saline): 133 % of control
T/C (dose: 75.0 micrograms/kg/injection, schedule: Q04DX005 (ip), vehicle: saline): 130 % of control
T/C (dose: 150.0 micrograms/kg/injection, schedule: Q04DX004 (ip), vehicle: saline): 145 % of control [9 of 10 alive on day 14]
survivor count (dose: 300.0 micrograms/kg/injection, schedule: Q04DX004 (ip), vehicle: saline): 1 of 10 on day 14
T/C [1]: 146 % of control [7 of 8 alive on day 17]
survivor count [1]: 6 of 9 on day 14
survivor count (dose: 600.0 micrograms/kg/injection, schedule: Q04DX004 (ip), vehicle: saline): 0 of 10 on day 14
survivor count (dose: 600.0 micrograms/kg/injection, schedule: Q04DX005 (ip), vehicle: saline): 0 of 10 on day 14 and 4 of 8 on day 17

COc1cc2c(c(OC)c1OC)-c1cccc(=O)cc1C(NC(C)=O)CC2 (stereo unspecified)
T/C [2]: 128 % of control
T/C [3]: 127 % of control
survivor count [4]: 0 of 10 on day 14

CC1OC(O[C@H]2/C=C/C=C/C=C/C=C/C=C/C=C/C=C/[C@H](C)[C@@H](O)[C@@H](C)[C@H](C)OC(=O)C[C@H](O)C[C@H](O)CC[C@@H](O)[C@H](O)C[C@H](O)C[C@]3(O)C[C@H](O)[C@@H](C(=O)O)[C@H](C2)O3)C(O)C(N)C1O (stereo partly specified)
survivor count [5]: 0 of 10 on day 14
survivor count (dose: 200.0 mg/kg/injection, schedule: Q04DX004 (ip), vehicle: suspension in saline): 0 of 10 on day 14

O=S1(=O)C(c2cccc(F)c2)=C(O)c2cc3ccccc3nc21
survivor count (dose: 425.0 mg/kg/injection, schedule: Q04DX004 (ip), vehicle: saline with Tween-80): 0 of 10 on day 14

COc1cc(C(C)c2cc3c(cc2OCCO)OCO3)cc(OC)c1OC (stereo unspecified)
survivor count [6]: 7 of 10 on day 9
survivor count [7]: 0 of 10 on day 9

COC1=C(OC)C(=O)C(C(=O)CCCCC(=O)O)=C(C)C1=O
survivor count [8]: 9 of 9 on day 14

COc1oc(C2C/C(=C/C(C)=C/C(C)=C/C(C)=C/c3ccc([N+](=O)[O-])cc3)CO2)c(C)c(=O)c1C (stereo unspecified)
survivor count (dose: 16.0 mg/kg/injection, schedule: Q04DX004 (ip), vehicle: saline): 0 of 10 on day 14
survivor count (dose: 32.0 mg/kg/injection, schedule: Q04DX004 (ip), vehicle: saline): 0 of 10 on day 14

Clc1cc2c(nn1)Nc1ccccc1S2
survivor count [6]: 10 of 10 on day 14
survivor count [7]: 8 of 10 on day 14

CCOC(=O)Nc1cc(NC(C)/C(=N/O)c2ccccc2)c([N+](=O)[O-])c(N)n1 (stereo unspecified)
T/C (dose: 200.0 mg/kg/injection, schedule: Q04DX004 (ip), vehicle: Klucel (hydroxypropylcellulose) (HPC), evaluated on day 39): 143 % of control
T/C (dose: 200.0 mg/kg/injection, schedule: Q04DX004 (ip), vehicle: Klucel (hydroxypropylcellulose) (HPC), evaluated on day 60): 135 % of control
T/C [4]: 129 % of control [8 of 10 alive on day 14]
T/C (dose: 480.0 mg/kg/injection, schedule: Q04DX004 (ip), vehicle: Klucel (hydroxypropylcellulose) (HPC)): 125 % of control
survivor count [9]: 4 of 10 on day 14

Cc1ccc(C(=Nc2ccccc2)N=P(c2ccccc2)(c2ccccc2)c2ccccc2)cc1
survivor count (dose: 100.0 mg/kg/injection, schedule: Q04DX004 (ip), vehicle: saline with Tween-80): 0 of 10 on day 14
survivor count [8]: 4 of 10 on day 14
survivor count [6]: 0 of 10 on day 14

C=CCOc1cc2c(cc1C(C)c1ccc(OC)cc1)OCO2 (stereo unspecified)
T/C [4]: 133 % of control
survivor count (dose: 600.0 mg/kg/injection, schedule: Q04DX004 (ip), vehicle: Klucel (hydroxypropylcellulose) (HPC)): 3 of 10 on day 14
T/C (dose: 666.67 mg/kg/injection, schedule: Q04DX004 (ip), vehicle: Klucel (hydroxypropylcellulose) (HPC)): 129 % of control
T/C (dose: 1111.12 mg/kg/injection, schedule: Q04DX004 (ip), vehicle: Klucel (hydroxypropylcellulose) (HPC)): 149 % of control

Cc1ccc(-n2c(CSc3ccc(Cl)cc3)nnc2SCc2nc3ccccc3[nH]2)cc1
survivor count [10]: 10 of 10 on day 14

COC(=O)Nc1cccc(-c2nc3ccc(NC(=O)OC)cc3c(=O)n2-c2ccccc2)c1
T/C (dose: 60.0 mg/kg/injection, schedule: Q04DX004 (ip), vehicle: Klucel (hydroxypropylcellulose) (HPC)): 139 % of control [9 of 10 alive on day 14]
T/C (dose: 90.0 mg/kg/injection, schedule: Q04DX004 (ip), vehicle: Klucel (hydroxypropylcellulose) (HPC)): 141 % of control
survivor count [3]: 2 of 10 on day 14
survivor count (dose: 300.0 mg/kg/injection, schedule: Q04DX004 (ip), vehicle: Klucel (hydroxypropylcellulose) (HPC)): 2 of 9 on day 14

CCOc1ccc(C(C)c2cc3c(cc2OC)OCO3)cc1 (stereo unspecified)
T/C (dose: 250.0 mg/kg/injection, schedule: Q04DX004 (ip), vehicle: distilled water + Tween-80): 125 % of control
survivor count (dose: 500.0 mg/kg/injection, schedule: Q04DX004 (ip), vehicle: distilled water + Tween-80): 6 of 10 on day 14 (2×)
survivor count (dose: 1000.0 mg/kg/injection, schedule: Q04DX004 (ip), vehicle: distilled water + Tween-80): 0 of 10 on day 14 (2×)

CCNC(=O)OCc1cnc(C)c(O)c1COC(=O)NCC
survivor count (dose: 800.0 mg/kg/injection, schedule: Q04DX004 (ip), vehicle: saline): 0 of 10 on day 14

CN1C(=O)OC(c2ccc(Cl)cc2)C1=O (stereo unspecified)
survivor count [9]: 3 of 10 on day 14

C=CCNc1nc2c(s1)c(C)c(O)c1ccccc12
survivor count (dose: 150.0 mg/kg/injection, schedule: Q04DX004 (ip), vehicle: saline with Tween-80): 10 of 10 on day 14
survivor count [10]: 10 of 10 on day 14
survivor count (dose: 600.0 mg/kg/injection, schedule: Q04DX004 (ip), vehicle: saline with Tween-80): 10 of 10 on day 14

O=CC(S)CO (stereo unspecified)
T/C [5]: 132 % of control

N#CC1C(=O)NC(=S)NC1c1ccco1 (stereo unspecified)
survivor count [3]: 5 of 10 on day 14
survivor count [4]: 0 of 10 on day 14
survivor count [9]: 0 of 10 on day 14

COc1ccc(C(N)=O)cc1N=NN(C)C
T/C (dose: 25.0 mg/kg/injection, schedule: Q04DX004 (ip), vehicle: Klucel (hydroxypropylcellulose) (HPC)): 139 and 141 % of control
T/C [2]: 138 [8 of 10 alive on day 14] and 149 % of control
survivor count [3]: 1 of 10 on day 14 and 2 of 10 on day 14

COc1ccccc1-n1cc[n+](C)c1/C=N/O
survivor count (dose: 100.0 mg/kg/injection, schedule: Q04DX004 (ip), vehicle: saline): 0 of 10 on day 14
survivor count (dose: 200.0 mg/kg/injection, schedule: Q04DX004 (ip), vehicle: saline): 0 of 10 on day 14
survivor count (dose: 400.0 mg/kg/injection, schedule: Q04DX004 (ip), vehicle: saline): 0 of 10 on day 14

O=C1N2CCNc3ccccc3C(c3ccccc3)N1CC2 (stereo unspecified)
survivor count [2]: 0 of 10 on day 14
survivor count (dose: 100.0 mg/kg/injection, schedule: Q04DX004 (ip), vehicle: Klucel (hydroxypropylcellulose) (HPC)): 0 of 10 on day 14

O=C1C2C3C=CC(C2C(=O)N1CO)C1C2C(=O)N(CO)C(=O)C2C31 (stereo unspecified)
survivor count (dose: 100.0 mg/kg/injection, schedule: Q04DX004 (ip), vehicle: water): 5 of 10 on day 14
survivor count (dose: 200.0 mg/kg/injection, schedule: Q04DX004 (ip), vehicle: water): 1 of 10 on day 14

O=NNc1ccccn1
T/C (dose: 12.5 mg/kg/injection, schedule: Q04DX004 (ip), vehicle: saline): 130 % of control
survivor count (dose: 50.0 mg/kg/injection, schedule: Q04DX004 (ip), vehicle: saline): 1 of 10 on day 14
survivor count (dose: 83.33 mg/kg/injection, schedule: Q04DX004 (ip), vehicle: saline): 0 of 10 on day 14
survivor count (dose: 138.89 mg/kg/injection, schedule: Q04DX004 (ip), vehicle: saline): 0 of 10 on day 14

CC(=O)C(Cl)C(=O)c1c(C)[nH]n(-c2ccccc2)c1=O (stereo unspecified)
survivor count [4]: 0 of 10 on day 14
survivor count [9]: 0 of 10 on day 14
